The values that follow come from patent publication US8415469B2, “Compounds and methods for kinase modulation, and indications therefor” (Plexxikon Inc., priority 2005, dated 2013).

By UniProt entry, the sequences of proteins in these tests, tags left out. Chains listed by the source or under a name are the forms on record and can include a tag or linker.
UniProt P10721, with tags, fused parts or gaps: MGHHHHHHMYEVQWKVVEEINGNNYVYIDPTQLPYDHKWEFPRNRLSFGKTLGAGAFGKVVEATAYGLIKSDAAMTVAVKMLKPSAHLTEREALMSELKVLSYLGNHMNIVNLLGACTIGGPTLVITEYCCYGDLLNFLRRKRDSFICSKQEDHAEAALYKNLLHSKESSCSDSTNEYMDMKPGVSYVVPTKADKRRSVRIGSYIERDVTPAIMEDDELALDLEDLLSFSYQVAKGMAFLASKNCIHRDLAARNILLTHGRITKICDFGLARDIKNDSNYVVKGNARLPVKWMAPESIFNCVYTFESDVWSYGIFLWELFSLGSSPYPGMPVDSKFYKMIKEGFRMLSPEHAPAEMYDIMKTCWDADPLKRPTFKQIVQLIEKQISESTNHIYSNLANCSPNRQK

The experiment has as its target T1, Kit (Homo sapiens, UniProt P10721).
T1 construct: P1332.N6 BI PTP KIT M552-K948-X COD; His6 (N); made in house; host or cells: E. coli (PTP1B co-expressed)
Put plainly: AlphaScreen kinase assay, Kit. The experiment is classed as biochemical. As to conditions: read-out: IC50, activity toward kinase Kit.

Structures are written as SMILES.

Take `Fc1ccc(-c2cnc3[nH]ccc3c2)cc1` [Compound P-0323]: the 50% inhibitory concentration (IC50) (usually the concentration at which inhibition is half-maximal) is at most 10 µM.
